From the supplement of paper PMC8728848
This is one part of the list.

Key:
Test in all cases: glycan array binding signal (z-score within array); higher = stronger binding
Conditions in all cases: glycan notation: IUPAC condensed, linker removed
[1] = molecular target: Gal(b1-4)GlcNAc(b1-3)Gal(b1-4)GlcNAc(b1-3)[Gal(b1-4)GlcNAc(b1-3)Gal(b1-4)GlcNAc(b1-6)]GalNAc
Procedure, shortened: (§1)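 The binding signal is a Z-score computed within each array and averaged over linkers. Arrays of the same protein sequence at different concentrations or buffers were also averaged together. Data originate from 3228 arrays in the Consortium for Functional Glycomics database, kept only where the protein sequence was available.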

[2] = molecular target: Gal(b1-4)GlcNAc(b1-3)Gal(b1-4)GlcNAc(b1-6)[Gal(b1-3)]GalNAc
Procedure, shortened: as §1

[3] = molecular target: Gal(b1-4)GlcNAc(b1-3)Gal(b1-4)[Fuc(a1-3)]GlcNAc(b1-3)Gal(b1-4)[Fuc(a1-3)]GlcNAc
Procedure, shortened: as §1

[4] = molecular target: Gal(b1-4)GlcNAc(b1-3)GalNAc
Procedure, shortened: as §1

[5] = molecular target: Gal(b1-4)GlcNAc(b1-3)[Fuc(a1-3)GlcNAc(b1-6)]Gal(b1-4)Glc
Procedure, shortened: as §1

[6] = molecular target: Gal(b1-4)GlcNAc(b1-3)[Gal(b1-4)GlcNAc(b1-6)]Gal(b1-4)GlcNAc
Procedure, shortened: as §1

[7] = molecular target: Gal(b1-4)GlcNAc(b1-3)[GlcNAc(b1-6)]Gal(b1-4)GlcNAc
Procedure, shortened: as §1

[8] = molecular target: Gal(b1-4)GlcNAc(b1-6)Gal(b1-4)GlcNAc
Procedure, shortened: as §1

[9] = molecular target: Gal(b1-4)GlcNAc(b1-6)GalNAc
Procedure, shortened: as §1

[10] = molecular target: Gal(b1-4)GlcNAc(b1-6)[Gal(b1-3)]GalNAc
Procedure, shortened: as §1

[11] = molecular target: Gal(b1-4)GlcNAc(b1-6)[Gal(b1-4)GlcNAc(b1-3)]GalNAc
Procedure, shortened: as §1

Gal(b1-4)GlcNAc6P = molecular target: Gal(b1-4)GlcNAc6P
Procedure, shortened: as §1

Gal(b1-6)Gal = molecular target: Gal(b1-6)Gal
Procedure, shortened: as §1

Gal3S(b1-3)GalNAc = molecular target: Gal3S(b1-3)GalNAc
Procedure, shortened: as §1

Gal3S(b1-3)GlcNAc = molecular target: Gal3S(b1-3)GlcNAc
Procedure, shortened: as §1

[12] = molecular target: Gal3S(b1-3)[Fuc(a1-4)]GlcNAc
Procedure, shortened: as §1

Gal3S(b1-4)Glc = molecular target: Gal3S(b1-4)Glc
Procedure, shortened: as §1

Gal3S(b1-4)Glc6S = molecular target: Gal3S(b1-4)Glc6S
Procedure, shortened: as §1

Gal3S(b1-4)GlcNAc = molecular target: Gal3S(b1-4)GlcNAc
Procedure, shortened: as §1

[13] = molecular target: Gal3S(b1-4)[Fuc(a1-3)]Glc6S
Procedure, shortened: as §1

[14] = molecular target: Gal3S(b1-4)[Fuc(a1-3)]GlcNAc
Procedure, shortened: as §1

[15] = molecular target: Gal3S(b1-4)[Fuc(a1-3)]GlcNAc6S
Procedure, shortened: as §1

Gal3S4S(b1-4)GlcNAc = molecular target: Gal3S4S(b1-4)GlcNAc
Procedure, shortened: as §1

Gal3S6S(b1-4)GlcNAc = molecular target: Gal3S6S(b1-4)GlcNAc
Procedure, shortened: as §1

Gal3S6S(b1-4)GlcNAc6S = molecular target: Gal3S6S(b1-4)GlcNAc6S
Procedure, shortened: as §1

Gal4S(b1-4)GlcNAc = molecular target: Gal4S(b1-4)GlcNAc
Procedure, shortened: as §1

Gal4S6S(b1-4)GlcNAc = molecular target: Gal4S6S(b1-4)GlcNAc
Procedure, shortened: as §1

Gal6P(b1-4)GlcNAc = molecular target: Gal6P(b1-4)GlcNAc
Procedure, shortened: as §1

Gal6S(b1-3)GlcNAc = molecular target: Gal6S(b1-3)GlcNAc
Procedure, shortened: as §1

Gal6S(b1-3)GlcNAc6S = molecular target: Gal6S(b1-3)GlcNAc6S
Procedure, shortened: as §1

Gal6S(b1-4)Glc = molecular target: Gal6S(b1-4)Glc
Procedure, shortened: as §1

Gal6S(b1-4)Glc6S = molecular target: Gal6S(b1-4)Glc6S
Procedure, shortened: as §1

Gal6S(b1-4)GlcNAc = molecular target: Gal6S(b1-4)GlcNAc
Procedure, shortened: as §1

Gal6S(b1-4)GlcNAc6S = molecular target: Gal6S(b1-4)GlcNAc6S
Procedure, shortened: as §1

GalNAc(a1-3)Gal = molecular target: GalNAc(a1-3)Gal
Procedure, shortened: as §1

GalNAc(a1-3)GalNAc = molecular target: GalNAc(a1-3)GalNAc
Procedure, shortened: as §1

[16] = molecular target: GalNAc(a1-3)GalNAc(b1-3)Gal(a1-4)Gal(b1-4)Glc
Procedure, shortened: as §1

B1: SP15308C-bot-338-23-338 (Bacteroides ovatus) (protein)
chain: DEWTDEQFKQLISFKTQPGGWGVTDVHVRYANSAKYTYNLPVLVSGSTDNTDDRLVSFSLRDDTLDILNFEKFGNRPELYFRELPQKYYSFPKELTIPAGQSHALLPIEFSLDGLDDSQKWALPLKVCEDANGTYAVNPRKYYRTAVLRPILFNEFSGRFSGSSLLGTMAGESDIKFSSTEIKLNVVTDSIVFFYAGQRTEDYEDRINYKVFLQFTGDKVDSKKDLYKMKIWAENEKLKFNSYSTPTYKVSSEMDATKTYLKHTYIVISDIDFDFVDYTSVPNYEIEYNMKGGLSVSRDLDTRKPDEDQGSDSKWW
[1]
  glycan array binding signal (z-score): 0.534
[2]
  glycan array binding signal (z-score): -0.223
[3]
  glycan array binding signal (z-score): -0.013
[4]
  glycan array binding signal (z-score): -0.42
[5]
  glycan array binding signal (z-score): -0.649
[6]
  glycan array binding signal (z-score): 0.136
[7]
  glycan array binding signal (z-score): -0.08
[8]
  glycan array binding signal (z-score): -0.279
[9]
  glycan array binding signal (z-score): -0.147
[10]
  glycan array binding signal (z-score): 0.095
[11]
  glycan array binding signal (z-score): 0.237
Gal(b1-4)GlcNAc6P
  glycan array binding signal (z-score): -0.041
Gal(b1-6)Gal
  glycan array binding signal (z-score): -0.259
Gal3S(b1-3)GalNAc
  glycan array binding signal (z-score): -0.134
Gal3S(b1-3)GlcNAc
  glycan array binding signal (z-score): 0.427
[12]
  glycan array binding signal (z-score): -0.235
Gal3S(b1-4)Glc
  glycan array binding signal (z-score): -0.591
Gal3S(b1-4)Glc6S
  glycan array binding signal (z-score): -0.188
Gal3S(b1-4)GlcNAc
  glycan array binding signal (z-score): -0.103
[13]
  glycan array binding signal (z-score): 0.68
[14]
  glycan array binding signal (z-score): 0.231
[15]
  glycan array binding signal (z-score): 0.431
Gal3S4S(b1-4)GlcNAc
  glycan array binding signal (z-score): -0.024
Gal3S6S(b1-4)GlcNAc
  glycan array binding signal (z-score): -0.862
Gal3S6S(b1-4)GlcNAc6S
  glycan array binding signal (z-score): 0.13
Gal4S(b1-4)GlcNAc
  glycan array binding signal (z-score): -0.375
Gal4S6S(b1-4)GlcNAc
  glycan array binding signal (z-score): 0.444
Gal6P(b1-4)GlcNAc
  glycan array binding signal (z-score): -0.444
Gal6S(b1-3)GlcNAc
  glycan array binding signal (z-score): 1.78
Gal6S(b1-3)GlcNAc6S
  glycan array binding signal (z-score): 0.585
Gal6S(b1-4)Glc
  glycan array binding signal (z-score): -0.267
Gal6S(b1-4)Glc6S
  glycan array binding signal (z-score): -0.508
Gal6S(b1-4)GlcNAc
  glycan array binding signal (z-score): -0.017
Gal6S(b1-4)GlcNAc6S
  glycan array binding signal (z-score): -0.622
GalNAc(a1-3)Gal
  glycan array binding signal (z-score): -0.157
GalNAc(a1-3)GalNAc
  glycan array binding signal (z-score): -0.472
[16]
  glycan array binding signal (z-score): -0.652
